The values are deposited in ChEMBL (CHEMBL3988442, “University of Dundee, Small-Polar-MMV Screening Library” (2021)).

Mtb cholesterol medium: 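Phenotypic screen: M. tuberculosis growth, cholesterol and DPPC medium, 4 days; the read-out is not stated. Compounds at 50 µM. The record gives no direction; compounds that gave an IC50 in retests scored well above the rest, so higher reads as more growth inhibition. Size under these conditions: about 69,000 compounds, about 370 of them at 50% or above in at least one test.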
Mtb glucose medium: 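Whole-cell growth test on Mycobacterium tuberculosis, read after 3 days in glucose-containing 7H9 medium; the read-out is not stated. Tested at 50 µM. Direction is inferred from retests: higher values go with more growth inhibition. Size under these conditions: about 69,000 compounds, about 760 of them at 50% or above in at least one test.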

Values are the deposited “Percent Effect”, in %.
The record does not define 0% and 100%; most values in the screen are far below 50% and negative numbers occur (in some assays of this library far below -100).
The compounds are a random part of those screened.
Two or more numbers in one place are separate tests of the same structure; such repeats can differ widely.

- Cc1nc(C(C)(C)NC(=O)Nc2ccncc2)no1 | Mtb cholesterol medium: 12.72%; Mtb glucose medium: 16.63% & -6.766%
- Cc1cccnc1NC(=O)c1ccc(F)c(S(=O)(=O)N2CCC2)c1 | Mtb cholesterol medium: 12.39%; Mtb glucose medium: 12.66%
- CN(c1ccncn1)C1CC2(CCN(C(=O)CCc3cccs3)C2)C1 (stereo not shown) | Mtb cholesterol medium: 14.45%; Mtb glucose medium: 23.36%
- Cc1cnn(CC2CCCCN2C(=O)c2ccc3nncn3c2)c1 (stereo not shown) | Mtb cholesterol medium: 5.655%; Mtb glucose medium: -1.067%
- CC1=Nc2c(c(=O)[nH]n2C(C)C)C(c2cccc(OC(F)F)c2)S1 (stereo not shown) | Mtb cholesterol medium: -7.769%; Mtb glucose medium: -12.88%
- CN(C)CCOc1ccccc1N1CCN(C(=O)C(C)(C)C#N)CC1 | Mtb cholesterol medium: 3.57%; Mtb glucose medium: 0.3459%
- O=C(O)C(F)(F)F.[H][C@@]12C[C@@H](OCc3ccccc3)CN1CCN(C(=O)c1cnccn1)C2 | Mtb cholesterol medium: -8.519%; Mtb glucose medium: -16.56% & 4.953%
- [H][C@]12CCN(c3cc(OC)ncn3)[C@@]1([H])C[C@@H](C(=O)NCC1CC1)O2 | Mtb cholesterol medium: -7.482%; Mtb glucose medium: -33.97%
- COc1ccc(S(=O)(=O)Nc2cnc(N(C)C)nc2)cc1 | Mtb cholesterol medium: 25.9%; Mtb glucose medium: 10.16%
- CC(C)c1nc(C2CCCN2c2cnc3ccccc3n2)no1 (stereo not shown) | Mtb cholesterol medium: 16.21%; Mtb glucose medium: -10.06%
- CCCn1nc2c(cc1=O)CN(Cc1nnc(C3CC3)o1)CC2 | Mtb cholesterol medium: -27.02%; Mtb glucose medium: -49.8%
- CC1CCN(CCNC(=O)c2cncnc2C(C)C)CC1 | Mtb cholesterol medium: -16.57%; Mtb glucose medium: -24.56% & -9.591%
- CN(C)CC1(O)CCCN(c2nc(-c3ccccc3)no2)CC1 (stereo not shown) | Mtb cholesterol medium: -13.67%; Mtb glucose medium: 0.6263%
- CCn1cc(CNC(=O)C(C)C)cn1 | Mtb cholesterol medium: 6.923%; Mtb glucose medium: 12.18%
- CN(Cc1ccccc1)c1ccc(C(F)(F)F)cn1 | Mtb cholesterol medium: -5.642%; Mtb glucose medium: -8.644%
- Cc1ccccc1CC(=O)N1CCc2c(ncnc2N2CCOCC2)C1 | Mtb cholesterol medium: -42.25%; Mtb glucose medium: -28.02%
- Cc1noc(C(C)C)c1C(=O)NCc1cccc(CN(C)C)c1 | Mtb cholesterol medium: -5.81%; Mtb glucose medium: 11.97%
- COc1ccc(Cl)cc1CCNC(=O)NCc1ncnn1C | Mtb cholesterol medium: -0.2396%; Mtb glucose medium: -13.8%
- Cc1cc(C)c(CNC(=O)N2CCN(c3cnccn3)CC2)c(=O)[nH]1 | Mtb cholesterol medium: -5.936%; Mtb glucose medium: -12.87%
- Cc1ccc(CCC(=O)N2CCOCC2)cc1Cl | Mtb cholesterol medium: -1.203%; Mtb glucose medium: 4.786%
- CCn1ccnc1CN1CCCN(C(=O)c2cccn2C)CC1 | Mtb cholesterol medium: 0.8664%; Mtb glucose medium: -0.06784%
- O=C(Nc1ccc(F)cc1)C1CNCCN1C(=O)CCO (stereo not shown) | Mtb cholesterol medium: -19.1%; Mtb glucose medium: -9.76% & -24.24%
- [H][C@]12CCN(S(=O)(=O)c3ccc(C)cc3)[C@@]1([H])CC[C@@H](COC)O2 | Mtb cholesterol medium: -16.7%; Mtb glucose medium: -1.401%
- CCc1c(C)nc2cc(C3CCN(Cc4cccc(F)c4)C3)nn2c1O (stereo not shown) | Mtb cholesterol medium: 8.382%; Mtb glucose medium: 7.041%
- Cc1cccnc1NC(=O)CC1(Cn2cnnn2)CCCCC1 | Mtb cholesterol medium: 3.309%; Mtb glucose medium: 20.05% & -5.27%
- O=C(O)C(F)(F)F.[H][C@@]12CN(CC)C[C@]1(C(=O)NC)CCC21CCN(C(=O)NC(C)C)CC1 | Mtb cholesterol medium: -13.38%; Mtb glucose medium: -5.815%
- COc1ccccc1-c1cc(NC(=O)CCC2CCCO2)[nH]n1 (stereo not shown) | Mtb cholesterol medium: -24.92%; Mtb glucose medium: -15.82%
- COCCCN1Cc2cccc(NC(=O)c3cc(F)ccc3F)c2C1 | Mtb cholesterol medium: 0.5631% & -7.895%; Mtb glucose medium: 14.11%
- Cc1nc2cc(C(=O)N(CCC#N)CC3CCCO3)ccc2[nH]1 (stereo not shown) | Mtb cholesterol medium: -14.09%; Mtb glucose medium: -10.72%
- CCOc1ccc(CN2CCc3nc4ccsc4c(=O)n3CC2)cc1.Cl | Mtb cholesterol medium: 50.05%; Mtb glucose medium: 54.15%
- CCCNC(=O)CCNC1CSCCc2ccccc21 (stereo not shown) | Mtb cholesterol medium: 13.54%; Mtb glucose medium: 4.384%
- CNC(=O)C1(N2CCC[C@H]2C(=O)NC2CCCCC2)CCOCC1.Cl | Mtb cholesterol medium: 3.436%; Mtb glucose medium: -14.28% & -0.1614%
- O=C(O)C(F)(F)F.O=C(O)C(F)(F)F.O=C(O)C(F)(F)F.[H][C@@]12CCN(Cc3ccccn3)[C@@]1([H])CC(=O)N2CCN1CCOCC1 | Mtb cholesterol medium: -17.82%; Mtb glucose medium: -12.05%
- CC(C)CCn1[nH]c(CNc2ccc(Cl)cc2)nc1=O | Mtb cholesterol medium: 13.82%; Mtb glucose medium: 21.84%
- Cc1cc(CS(=O)(=O)c2ccccc2)no1 | Mtb cholesterol medium: 5.788%; Mtb glucose medium: 1.079%
- COc1ccc(N2CCN(C(=O)c3nc(Cl)sc3C(C)C)CC2)cc1 | Mtb cholesterol medium: -3.314%; Mtb glucose medium: 6.757%
- O=C(Nc1cn[nH]c1)N1CCCCCC1c1ccncc1 (stereo not shown) | Mtb cholesterol medium: 14.63%; Mtb glucose medium: 14.59% & 1.998%
- Cc1ccc(C(=O)N2CCC3(CC2)c2ccccc2[C@@H](N)[C@@H]3O)c(=O)[nH]1 | Mtb cholesterol medium: 9.094%; Mtb glucose medium: 16.67%
- O=C(N1CCCC1)N1CCC2(CCCN(CCOc3ccccc3)C2)C1.O=C(O)C(F)(F)F (stereo not shown) | Mtb cholesterol medium: -12.86%; Mtb glucose medium: -25.6%
- NC(=O)CN(C(=O)Cc1cccc(C(F)(F)F)c1)C1CCCC1 | Mtb cholesterol medium: -15.32%; Mtb glucose medium: 13.22%